# Experimental data: PubChem BioAssay AID504784 (Drosophila RNAi Screening Center, 2011)
# Assay: 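Fly genes whose silencing alters how much lipid cells keep in droplets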 (primary screen)
# Cells: Drosophila Kc167 embryonic cells
# Knock-down reagent: long dsRNA against Drosophila genes, about 250 ng dsRNA per well
# Timing: 4 days
# Conditions: cells fed 400 µM oleic acid bound to BSA
# Measurement: 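Cells imaged and segmented; ratio of lipid droplet area to nuclear area, log-transformed, then normalised as a B-score over the screen; higher means more stored lipid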
# Scale: droplet/nuclear area B-score: higher = more stored lipid (overstorage)
# The screen tested about 17,000 reagents; below is an unselected part of those that have a named target and a result. 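Each column is one replicate's B-score; the combined score over replicates was not deposited, so single values may mislead.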 A plus sign joins genes that one reagent is predicted to hit. Reagent sequences are not shown.
Gene,DRSC id,"droplet/nuclear area B-score, replicate 1","droplet/nuclear area B-score, replicate 2","droplet/nuclear area B-score, replicate 3"
Rac2 (GeneID 38831),DRSC11262,0.967,-1.04,
dod (GeneID 33111),DRSC20577,0.0271,-0.143,
RpL36 (GeneID 31009),DRSC18708,1.73,2.45,
Amyrel (GeneID 36863),DRSC05920,,0.116,
Syx5 (GeneID 34966),DRSC03432,-0.788,1.38,
Taf6 (GeneID 40134),DRSC11299,-0.4,-0.0553,1.01
fw (GeneID 32162),DRSC20334,-1.08,0.994,-0.0202
Mical (GeneID 41225),DRSC14349,-0.0643,0.239,
Mical (GeneID 41225),DRSC14351,1.43,0.546,
Mical (GeneID 41225),DRSC15365,-0.294,0.106,
Mical (GeneID 41225),DRSC15366,-0.0274,-0.625,
CG14963 (GeneID 38383),DRSC08422,1.95,0.0429,
ThrRS (GeneID 45784),DRSC02843,0.565,-2.42,
LBR (GeneID 37482),DRSC04298,-1.12,,
CG44433 (GeneID 37150),DRSC06517,0.685,0.962,
CG44433 (GeneID 37150),DRSC06518,-0.638,0.996,
Lcp9 (GeneID 37963),DRSC04287,0.266,0.334,
upd1 (GeneID 32813),DRSC20358,0.868,1.15,
nAChRalpha6 (GeneID 34304),DRSC01096,-0.514,-0.469,
nAChRalpha6 (GeneID 34304),DRSC02738,0.72,-0.812,
mRpS29 (GeneID 37563),DRSC04398,0.0625,0.428,
CG4641 (retired record) (GeneID 39053),DRSC10439,-0.674,0.174,
CG3776 (GeneID 37996),DRSC04417,2.58,0.716,
CG14654 (retired record) (GeneID 40592),DRSC12240,2.09,-1.02,
CG10086 (GeneID 40920),DRSC14183,0.403,-1.05,
CG15615 (GeneID 36882),DRSC06568,2.72,0.97,
CG33523 (GeneID 38668),DRSC09814,0.0785,-1.28,
CG33523 (GeneID 38668),DRSC22155,0.569,0.787,
Grx5 (GeneID 32410),DRSC19593,-0.912,0.646,
CG14095 (GeneID 40112),DRSC10098,0.542,0.264,
CaMKI (GeneID 43792),DRSC17162,0.235,0.681,
eRF3 (GeneID 34658),DRSC03322,-2.22,-0.752,
tutl (GeneID 46015),DRSC00441,-0.523,-0.0489,
tutl (GeneID 46015),DRSC00442,0.0166,-0.307,
tutl (GeneID 46015),DRSC00443,0.0155,-0.709,
dlt (GeneID 46719),DRSC08705,0.395,-1.29,
CG1137 (GeneID 40803),DRSC12529,-0.851,2.05,
Shark (GeneID 44353),DRSC07680,-4.29,3.19,
Phlpp (GeneID 35178),DRSC02065,0.173,-1.32,
Phlpp (GeneID 35178),DRSC22808,-0.753,0.0436,
CG30491 (GeneID 35704),DRSC21472,-0.0389,-0.655,
CG31959 (retired record) (GeneID 326180),DRSC22912,-1.34,0.104,
CG12517 (GeneID 34506),DRSC02173,-0.815,-1.75,
RpLP0-like (GeneID 36058),DRSC06424,-0.273,1.29,
CG8708 (GeneID 35792),DRSC07240,0.00687,0.611,
blanks (GeneID 38620),DRSC09757,-0.731,-0.159,
mus201 + Chrac-14,DRSC03568,-0.19,0.118,
mus201 + Chrac-14,DRSC03575,0.508,-0.116,
Or65b (GeneID 318012),DRSC08809,2.57,0.0549,
CG8032 (GeneID 41026),DRSC16365,0.234,0.911,
Dyrk3 (GeneID 3885567),DRSC21055,1.17,1.41,

Reformatted: 14 of the entries above
CG4641 (retired record) (GeneID 39053) [DRSC10439] → droplet/nuclear area B-score, replicate 1 = -0.674; droplet/nuclear area B-score, replicate 2 = 0.174
CG3776 (GeneID 37996) [DRSC04417] → droplet/nuclear area B-score, replicate 1 = 2.58; droplet/nuclear area B-score, replicate 2 = 0.716
CG14654 (retired record) (GeneID 40592) [DRSC12240] → droplet/nuclear area B-score, replicate 1 = 2.09; droplet/nuclear area B-score, replicate 2 = -1.02
CG10086 (GeneID 40920) [DRSC14183] → droplet/nuclear area B-score, replicate 1 = 0.403; droplet/nuclear area B-score, replicate 2 = -1.05
CG15615 (GeneID 36882) [DRSC06568] → droplet/nuclear area B-score, replicate 1 = 2.72; droplet/nuclear area B-score, replicate 2 = 0.97
CG33523 (GeneID 38668) [DRSC09814] → droplet/nuclear area B-score, replicate 1 = 0.0785; droplet/nuclear area B-score, replicate 2 = -1.28
CG33523 (GeneID 38668) [DRSC22155] → droplet/nuclear area B-score, replicate 1 = 0.569; droplet/nuclear area B-score, replicate 2 = 0.787
Grx5 (GeneID 32410) [DRSC19593] → droplet/nuclear area B-score, replicate 1 = -0.912; droplet/nuclear area B-score, replicate 2 = 0.646
CG14095 (GeneID 40112) [DRSC10098] → droplet/nuclear area B-score, replicate 1 = 0.542; droplet/nuclear area B-score, replicate 2 = 0.264
CaMKI (GeneID 43792) [DRSC17162] → droplet/nuclear area B-score, replicate 1 = 0.235; droplet/nuclear area B-score, replicate 2 = 0.681
eRF3 (GeneID 34658) [DRSC03322] → droplet/nuclear area B-score, replicate 1 = -2.22; droplet/nuclear area B-score, replicate 2 = -0.752
tutl (GeneID 46015) [DRSC00441] → droplet/nuclear area B-score, replicate 1 = -0.523; droplet/nuclear area B-score, replicate 2 = -0.0489
tutl (GeneID 46015) [DRSC00442] → droplet/nuclear area B-score, replicate 1 = 0.0166; droplet/nuclear area B-score, replicate 2 = -0.307
tutl (GeneID 46015) [DRSC00443] → droplet/nuclear area B-score, replicate 1 = 0.0155; droplet/nuclear area B-score, replicate 2 = -0.709

The listing continues.
Gene,DRSC id,"droplet/nuclear area B-score, replicate 1","droplet/nuclear area B-score, replicate 2","droplet/nuclear area B-score, replicate 3"
shot (GeneID 36542),DRSC05459,0.586,2.76,
shot (GeneID 36542),DRSC05460,-2.55,-0.92,
shot (GeneID 36542),DRSC07682,0.286,0.275,
Mst84B (GeneID 40840),DRSC12579,0.105,0.18,
alph (GeneID 43481),DRSC15398,-1.87,-0.674,
Gld2 (GeneID 42602),DRSC15863,2.23,-1.14,
Gld2 (GeneID 42602),DRSC23037,-1.29,0.775,
CG13392 (GeneID 34157),DRSC02262,0.00702,0.384,
l(2)k09913 (GeneID 37661),DRSC04699,0.503,0.264,
Zip99C (GeneID 43533),DRSC16320,-2.07,4.03,
Sema5c (GeneID 37066),DRSC11279,-0.0955,-0.0801,
C3G (GeneID 31618),DRSC17745,-2.66,-1.95,
C3G (GeneID 31618),DRSC17929,0.00975,0.64,
C3G (GeneID 31618),DRSC22329,0.696,-2.25,
C3G (GeneID 31618),DRSC23077,-0.243,-0.957,
fid (GeneID 43148),DRSC14885,2.48,,
fid (GeneID 43148),DRSC16464,-0.68,-1.17,
CG14676 (GeneID 40729),DRSC12262,0.454,-0.336,
CG4945 (GeneID 36850),DRSC06904,0.635,0.348,
tau (GeneID 326116),DRSC14569,0.256,2.13,
tau (GeneID 326116),DRSC23046,0.0318,-0.0246,
CG9855 (GeneID 40556),DRSC12344,0.0516,-0.148,1.23
Rx (GeneID 37367),DRSC03837,2.3,-0.0341,
Rx (GeneID 37367),DRSC04652,-0.335,-0.155,
CG2006 (GeneID 43472),DRSC15412,2.61,-1.36,0.983
CG13623 (GeneID 42926),DRSC14625,4.84,6.33,
mRpS28 (GeneID 37136),DRSC06939,0.668,,
CG5359 (GeneID 41222),DRSC15780,0.197,0.782,
Ocrl (GeneID 31157),DRSC18576,0.945,,
Wdr33 (GeneID 40698),DRSC12162,-0.124,-0.821,
Acsx3 (GeneID 42354),DRSC14309,0.0895,1.84,
CstF50 (GeneID 43734),DRSC15434,0.174,8.29,
